The list does not hold the whole screen: it gathers tests that were run many times, whatever their T/C, doses with no T/C, and many T/C values between a quarter and a half above the control. Further doses and runs are listed elsewhere. T/C: endpoint of the treated group in % of that of the vehicle group. Some entries give survivors of the animals treated and no T/C: the source files T/C as zero there, which appears to mark a toxic dose or a test without result, not a measured value. Some survivor counts are full or nearly so, which does not show that the dose was tolerated: the source hardly ever lists a survival T/C far under the control, and the zero likely stands for such cases as well. Counts of survivors are from the toxicity check (mostly the fifth day) where no day follows; animals may have died later. Schedule codes are those of the source, taken here to give the interval after Q, in days (D) or hours (H), and the number of doses after X. Some doses were run more than once; the values are given in rising order. Some schedules carry Z or #; the key to these is not given. For survival time, the PubChem record calls one and a half times the control and up active, and a quarter to a half above the control has no call in these data; cut-offs in other NCI protocols can differ. Some T/C values carry the count of animals alive at the toxicity check (mostly the fifth day); where none is given, no animal had died by that day.
Tested on: L1210 leukemia ip in BDF1 mice, survival T/C
Experiment: NCI In Vivo Anticancer Drug Screen. Data for tumor model L1210 Leukemia (intraperitoneal) in B6D2F1 (BDF1) mice
Conditions: higher T/C = longer survival
[1] = T/C endpoint: mean survival time, dose: 300.0 mg/kg/injection, schedule: Q01DX001 (ip), vehicle: saline
[2] = T/C endpoint: mean survival time, dose: 400.0 mg/kg/injection, schedule: Q01DX001 (ip), vehicle: saline
[3] = T/C endpoint: mean survival time, dose: 200.0 mg/kg/injection, schedule: Q01DX001 (ip), vehicle: saline
[4] = T/C endpoint: mean survival time, dose: 50.0 mg/kg/injection, schedule: Q01DX009 (ip), vehicle: saline
[5] = T/C endpoint: mean survival time, dose: 50.0 mg/kg/injection, schedule: Q04DX003 (ip), vehicle: saline
[6] = T/C endpoint: mean survival time, dose: 100.0 mg/kg/injection, schedule: Q04DX003 (ip), vehicle: saline with Tween-80
[7] = T/C endpoint: mean survival time, dose: 200.0 mg/kg/injection, schedule: Q04DX003 (ip), vehicle: saline with Tween-80
[8] = T/C endpoint: mean survival time, dose: 400.0 mg/kg/injection, schedule: Q04DX003 (ip), vehicle: saline with Tween-80

COc1nn(C)c(=O)c2cccnc12 was tested, and the survivor count [1] was 2 of 6.

With CCOS(=O)(=O)CCCCS(=O)(=O)OCC the survivor count (T/C endpoint: median survival time, dose: 100.0 mg/kg/injection, schedule: Q01DX009 (ip), vehicle: Klucel (hydroxypropylcellulose) (HPC)) was 0 of 6, the survivor count (T/C endpoint: median survival time, dose: 200.0 mg/kg/injection, schedule: Q01DX009 (ip), vehicle: Klucel (hydroxypropylcellulose) (HPC)) was 0 of 6 and the survivor count (T/C endpoint: median survival time, dose: 400.0 mg/kg/injection, schedule: Q01DX009 (ip), vehicle: Klucel (hydroxypropylcellulose) (HPC)) was 0 of 6.

CCC(C)C(CCN(C)CC)(CNC(=O)CN(CC)CC)c1cccc2ccccc12 (centres undefined) was tested, and the survivor count (T/C endpoint: mean survival time, dose: 200.0 mg/kg/injection, schedule: Q01DX009 (ip), vehicle: saline) was 0 of 6, the survivor count (T/C endpoint: mean survival time, dose: 200.0 mg/kg/injection, schedule: Q04DX002 (ip), vehicle: saline) was 3 of 3 and the survivor count (T/C endpoint: mean survival time, dose: 400.0 mg/kg/injection, schedule: Q01DX009 (ip), vehicle: saline) was 0 of 6.

In the case of CN=NNc1ccc(C)cc1, the T/C (T/C endpoint: mean survival time, dose: 100.0 mg/kg/injection, schedule: Q01DX009 (ip), vehicle: Klucel (hydroxypropylcellulose) (HPC)) is reported as 127 % of control, the survivor count (T/C endpoint: mean survival time, dose: 100.0 mg/kg/injection, schedule: Q04DX003 (ip), vehicle: Klucel (hydroxypropylcellulose) (HPC)) is reported as 6 of 6 and the survivor count (T/C endpoint: mean survival time, dose: 200.0 mg/kg/injection, schedule: Q04DX003 (ip), vehicle: Klucel (hydroxypropylcellulose) (HPC)) is reported as 6 of 6. For the same compound, the survivor count [2] was 2 of 4, the survivor count (T/C endpoint: mean survival time, dose: 400.0 mg/kg/injection, schedule: Q01DX009 (ip), vehicle: Klucel (hydroxypropylcellulose) (HPC)) was 0 of 6 and the survivor count (T/C endpoint: mean survival time, dose: 400.0 mg/kg/injection, schedule: Q04DX003 (ip), vehicle: Klucel (hydroxypropylcellulose) (HPC)) was 5 of 6.

BrC1CC2OC2C2OC12 (centres undefined) was tested, and the survivor count [3] was 0 of 6 and the survivor count [2] was 0 of 6.

For C[n+]1cccc(CNC(=O)COc2ccc(Cl)c(Cl)c2)c1, the survivor count [3] was 3 of 6 and the survivor count [2] was 1 of 6.

CCC(=O)/C=C/C1C(C)=CCCC1(C)C (centres undefined) was tested, and the survivor count (T/C endpoint: mean survival time, dose: 400.0 mg/kg/injection, schedule: Q01DX009 (ip), vehicle: saline with Tween-80) was 2 of 6.

In the case of O=[N+]([O-])/C(N=Nc1ccc2ccccc2c1)=N\Nc1ccc2ccccc2c1, the survivor count (T/C endpoint: mean survival time, dose: 75.0 mg/kg/injection, schedule: Q01DX001 (ip), vehicle: acetone) is reported as 6 of 6, the survivor count (T/C endpoint: mean survival time, dose: 150.0 mg/kg/injection, schedule: Q01DX001 (ip), vehicle: acetone) is reported as 5 of 5 and 6 of 6 and the survivor count (T/C endpoint: mean survival time, dose: 300.0 mg/kg/injection, schedule: Q01DX001 (ip), vehicle: acetone) is reported as 6 of 6.

For CSc1ncnc2c1ncn2N(CCCl)C(C)=O, the survivor count (T/C endpoint: mean survival time, dose: 200.0 mg/kg/injection, schedule: Q01DX001 (ip), vehicle: other) was 1 of 6 and the survivor count (T/C endpoint: mean survival time, dose: 400.0 mg/kg/injection, schedule: Q01DX001 (ip), vehicle: other) was 1 of 6.

In the case of OCCOCCN1CCN(CCCN2c3ccccc3Sc3ccc(C(F)(F)F)cc32)CC1, the survivor count (T/C endpoint: mean survival time, dose: 3.12 mg/kg/injection, schedule: Q01DX009 (ip), vehicle: saline) is reported as 6 of 6, the survivor count (T/C endpoint: mean survival time, dose: 6.25 mg/kg/injection, schedule: Q01DX009 (ip), vehicle: saline) is reported as 6 of 6 and the survivor count (T/C endpoint: mean survival time, dose: 12.5 mg/kg/injection, schedule: Q01DX009 (ip), vehicle: saline) is reported as 4 of 6. For the same compound, the survivor count (T/C endpoint: mean survival time, dose: 25.0 mg/kg/injection, schedule: Q01DX009 (ip), vehicle: saline) was 3 of 6, the T/C (T/C endpoint: mean survival time, dose: 33.0 mg/kg/injection, schedule: Q04DX003 (ip), vehicle: saline) was 128 and 132 % of control and the survivor count (T/C endpoint: mean survival time, dose: 37.5 mg/kg/injection, schedule: Q01DX009 (ip), vehicle: saline) was 6 of 6. The T/C (T/C endpoint: mean survival time, dose: 37.5 mg/kg/injection, schedule: Q04DX003 (ip), vehicle: saline) was 135 % of control, the survivor count [4] was 5 of 6 and the T/C [5] was 109, 122 [5 of 6 alive], 128, 135, 150 % of control. For the same compound, the survivor count [5] was 4 of 6, the survivor count (T/C endpoint: mean survival time, dose: 75.0 mg/kg/injection, schedule: Q01DX009 (ip), vehicle: saline) was 0 of 6 and the T/C (T/C endpoint: mean survival time, dose: 75.0 mg/kg/injection, schedule: Q04DX003 (ip), vehicle: saline) was 95, 113 [5 of 6 alive], 131, 173 % of control [5 of 6 alive]. For the same compound, the survivor count (T/C endpoint: mean survival time, dose: 100.0 mg/kg/injection, schedule: Q01DX009 (ip), vehicle: saline) was 6 of 6, the survivor count [6] was 4 of 6 and the survivor count (T/C endpoint: mean survival time, dose: 100.0 mg/kg/injection, schedule: Q04DX003 (ip), vehicle: saline) was 1 of 6 and 6 of 6. The survivor count (T/C endpoint: mean survival time, dose: 150.0 mg/kg/injection, schedule: Q04DX003 (ip), vehicle: saline) was 2 of 6, the survivor count [7] was 0 of 6 and the survivor count (T/C endpoint: mean survival time, dose: 300.0 mg/kg/injection, schedule: Q04DX003 (ip), vehicle: saline) was 0 of 6. The survivor count [8] was 0 of 6, the survivor count (T/C endpoint: mean survival time, dose: 600.0 mg/kg/injection, schedule: Q04DX003 (ip), vehicle: saline) was 0 of 6 and the survivor count (T/C endpoint: mean survival time, dose: 400.0 micrograms/kg/injection, schedule: Q01DX009 (ip), vehicle: saline) was 5 of 6. For the same compound, the survivor count (T/C endpoint: mean survival time, dose: 800.0 micrograms/kg/injection, schedule: Q01DX009 (ip), vehicle: saline) was 6 of 6.

With O=c1n(CCCl)c(=O)n(CCCl)c(=O)n1CCCl the survivor count [6] was 6 of 6.

In the case of CC(=O)Nc1cc(Cl)c(Nc2cc(S(=O)(=O)O)c(N)c3c2C(=O)c2ccccc2C3=O)c(Cl)c1, the survivor count [1] is reported as 2 of 6.

For CC1=NCCc2ccccc21, the survivor count [6] was 0 of 6, the survivor count [7] was 0 of 6 and the survivor count [8] was 0 of 6.

With CCCCC(CC)CCC(C)O (centres undefined) the survivor count (T/C endpoint: mean survival time, dose: 200.0 mg/kg/injection, schedule: Q01DX009 (ip), vehicle: saline with Tween-80) was 6 of 6 and the survivor count [8] was 6 of 6.

C=CCN(CC=C)P(=O)(N(CC=C)CC=C)N1CC1 was tested, and the T/C (T/C endpoint: mean survival time, dose: 20.0 mg/kg/injection, schedule: Q01DX001 (ip), vehicle: saline) was 126 % of control, the T/C (T/C endpoint: mean survival time, dose: 40.0 mg/kg/injection, schedule: Q01DX001 (ip), vehicle: saline) was 134 % of control and the T/C (T/C endpoint: mean survival time, dose: 80.0 mg/kg/injection, schedule: Q01DX001 (ip), vehicle: saline) was 143 % of control. The survivor count [3] was 2 of 6 and the survivor count [2] was 0 of 6.

For CCN=C(c1ccc(NC(=O)c2ccc(C(=O)Nc3ccc(C(=NCC)N(CC)C(=O)Nc4ccc(OCC)cc4)cc3)cc2)cc1)N(CC)C(=O)Nc1ccc(OCC)cc1, the T/C (T/C endpoint: mean survival time, dose: 15.0 mg/kg/injection, schedule: Q01DX015 (ip), vehicle: methylcellulose (MC)) was 132 % of control, the survivor count (T/C endpoint: mean survival time, dose: 30.0 mg/kg/injection, schedule: Q01DX015 (ip), vehicle: methylcellulose (MC)) was 0 of 6 and the survivor count (T/C endpoint: mean survival time, dose: 62.0 mg/kg/injection, schedule: Q01DX015 (ip), vehicle: methylcellulose (MC)) was 0 of 6. For the same compound, the survivor count (T/C endpoint: mean survival time, dose: 125.0 mg/kg/injection, schedule: Q01DX015 (ip), vehicle: methylcellulose (MC)) was 0 of 6, the survivor count (T/C endpoint: mean survival time, dose: 250.0 mg/kg/injection, schedule: Q01DX015 (ip), vehicle: methylcellulose (MC)) was 0 of 6 and the survivor count (T/C endpoint: mean survival time, dose: 500.0 mg/kg/injection, schedule: Q01DX015 (ip), vehicle: methylcellulose (MC)) was 0 of 6.

In the case of CC(C)OC(=O)Nc1ccc(Br)cc1, the survivor count (T/C endpoint: mean survival time, dose: 400.0 mg/kg/injection, schedule: Q04DX002 (ip), vehicle: Klucel (hydroxypropylcellulose) (HPC)) is reported as 3 of 3.

For CNN=C(C)C, the survivor count [4] was 0 of 6, the survivor count (T/C endpoint: mean survival time, dose: 100.0 mg/kg/injection, schedule: Q01DX001 (ip), vehicle: saline) was 0 of 6 and the survivor count [3] was 0 of 6. For the same compound, the survivor count [2] was 0 of 6.

For CN(N=O)C(=O)Nc1ccc(F)cc1, the T/C (T/C endpoint: mean survival time, dose: 50.0 mg/kg/injection, schedule: Q01DX Z (ip), vehicle: carboxymethylcellulose (CMC)) was 129 % of control, the survivor count (T/C endpoint: mean survival time, dose: 100.0 mg/kg/injection, schedule: Q01DX Z (ip), vehicle: carboxymethylcellulose (CMC)) was 5 of 6 and the T/C (T/C endpoint: mean survival time, dose: 150.0 mg/kg/injection, schedule: Q01DX001 (ip), vehicle: carboxymethylcellulose (CMC)) was 130 % of control. The survivor count (T/C endpoint: mean survival time, dose: 300.0 mg/kg/injection, schedule: Q01DX001 (ip), vehicle: carboxymethylcellulose (CMC)) was 6 of 10, the survivor count (T/C endpoint: mean survival time, dose: 600.0 mg/kg/injection, schedule: Q01DX001 (ip), vehicle: carboxymethylcellulose (CMC)) was 0 of 10 and the survivor count (T/C endpoint: mean survival time, dose: 1200.0 mg/kg/injection, schedule: Q01DX001 (ip), vehicle: carboxymethylcellulose (CMC)) was 0 of 10.
